The values below come from the supplement of paper PMC10849652.

Protein sequences, listed by entry. Tags and fused reporters are not part of them. Lines headed by an entry give the natural chain unless they say otherwise; changes in a name come on top.
UniProt Q9NVE7: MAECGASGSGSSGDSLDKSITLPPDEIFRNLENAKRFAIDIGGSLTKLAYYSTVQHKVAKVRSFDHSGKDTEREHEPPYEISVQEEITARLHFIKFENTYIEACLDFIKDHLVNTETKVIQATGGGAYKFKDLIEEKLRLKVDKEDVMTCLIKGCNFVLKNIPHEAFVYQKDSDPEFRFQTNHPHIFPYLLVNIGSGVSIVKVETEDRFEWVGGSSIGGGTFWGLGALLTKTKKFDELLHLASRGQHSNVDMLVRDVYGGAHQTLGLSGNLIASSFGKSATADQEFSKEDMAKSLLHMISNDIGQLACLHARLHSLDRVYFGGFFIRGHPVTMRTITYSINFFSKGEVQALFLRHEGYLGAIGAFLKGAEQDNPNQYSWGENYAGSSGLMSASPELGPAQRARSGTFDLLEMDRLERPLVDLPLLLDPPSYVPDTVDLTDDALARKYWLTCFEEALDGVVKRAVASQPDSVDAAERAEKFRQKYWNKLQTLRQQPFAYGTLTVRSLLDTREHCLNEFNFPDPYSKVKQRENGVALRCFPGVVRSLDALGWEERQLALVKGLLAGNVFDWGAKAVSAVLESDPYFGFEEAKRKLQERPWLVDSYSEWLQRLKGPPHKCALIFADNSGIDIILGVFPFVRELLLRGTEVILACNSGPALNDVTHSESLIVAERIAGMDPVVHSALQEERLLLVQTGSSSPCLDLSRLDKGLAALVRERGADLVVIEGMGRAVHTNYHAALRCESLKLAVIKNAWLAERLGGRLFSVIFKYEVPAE
UniProt P50479: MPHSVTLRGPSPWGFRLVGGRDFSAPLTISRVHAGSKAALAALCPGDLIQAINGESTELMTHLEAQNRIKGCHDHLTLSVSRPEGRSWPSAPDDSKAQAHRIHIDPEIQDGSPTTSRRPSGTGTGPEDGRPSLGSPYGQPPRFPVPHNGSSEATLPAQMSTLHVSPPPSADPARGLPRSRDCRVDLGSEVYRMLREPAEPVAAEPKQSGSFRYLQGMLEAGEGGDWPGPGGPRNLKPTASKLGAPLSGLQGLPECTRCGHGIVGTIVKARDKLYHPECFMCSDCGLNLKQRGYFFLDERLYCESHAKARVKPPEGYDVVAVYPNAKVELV
UniProt Q6P996: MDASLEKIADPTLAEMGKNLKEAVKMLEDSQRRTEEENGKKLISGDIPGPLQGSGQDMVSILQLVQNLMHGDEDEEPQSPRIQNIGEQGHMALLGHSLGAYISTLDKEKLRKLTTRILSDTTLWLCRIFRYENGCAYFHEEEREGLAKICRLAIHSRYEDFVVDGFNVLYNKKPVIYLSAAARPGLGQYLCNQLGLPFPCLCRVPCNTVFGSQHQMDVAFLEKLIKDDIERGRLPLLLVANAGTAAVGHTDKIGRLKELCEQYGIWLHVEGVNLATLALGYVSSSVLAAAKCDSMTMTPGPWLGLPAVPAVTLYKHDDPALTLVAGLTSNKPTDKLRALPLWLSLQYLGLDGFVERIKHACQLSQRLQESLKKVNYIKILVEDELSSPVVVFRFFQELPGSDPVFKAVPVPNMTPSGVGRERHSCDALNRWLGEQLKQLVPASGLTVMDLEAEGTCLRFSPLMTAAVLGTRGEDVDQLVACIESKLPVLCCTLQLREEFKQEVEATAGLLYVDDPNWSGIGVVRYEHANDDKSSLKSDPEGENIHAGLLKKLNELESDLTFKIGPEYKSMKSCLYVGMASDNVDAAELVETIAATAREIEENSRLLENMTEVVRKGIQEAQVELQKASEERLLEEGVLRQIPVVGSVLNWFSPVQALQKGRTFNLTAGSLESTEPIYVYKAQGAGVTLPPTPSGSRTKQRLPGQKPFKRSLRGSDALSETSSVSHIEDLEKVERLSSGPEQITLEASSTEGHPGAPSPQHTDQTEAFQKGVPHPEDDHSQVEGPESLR
UniProt Q9UHG3: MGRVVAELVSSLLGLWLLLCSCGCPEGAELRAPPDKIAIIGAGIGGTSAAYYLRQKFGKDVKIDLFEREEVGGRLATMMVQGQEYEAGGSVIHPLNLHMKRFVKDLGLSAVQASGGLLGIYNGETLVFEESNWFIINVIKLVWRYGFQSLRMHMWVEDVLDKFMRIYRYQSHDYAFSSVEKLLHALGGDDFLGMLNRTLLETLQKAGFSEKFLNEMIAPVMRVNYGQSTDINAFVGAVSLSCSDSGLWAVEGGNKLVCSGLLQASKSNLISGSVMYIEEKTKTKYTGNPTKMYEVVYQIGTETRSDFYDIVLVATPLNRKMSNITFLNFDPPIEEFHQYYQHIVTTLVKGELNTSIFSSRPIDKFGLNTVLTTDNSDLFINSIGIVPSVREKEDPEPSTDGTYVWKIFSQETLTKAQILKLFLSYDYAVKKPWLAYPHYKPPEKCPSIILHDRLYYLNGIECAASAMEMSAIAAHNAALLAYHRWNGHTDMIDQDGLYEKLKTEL
UniProt O43933: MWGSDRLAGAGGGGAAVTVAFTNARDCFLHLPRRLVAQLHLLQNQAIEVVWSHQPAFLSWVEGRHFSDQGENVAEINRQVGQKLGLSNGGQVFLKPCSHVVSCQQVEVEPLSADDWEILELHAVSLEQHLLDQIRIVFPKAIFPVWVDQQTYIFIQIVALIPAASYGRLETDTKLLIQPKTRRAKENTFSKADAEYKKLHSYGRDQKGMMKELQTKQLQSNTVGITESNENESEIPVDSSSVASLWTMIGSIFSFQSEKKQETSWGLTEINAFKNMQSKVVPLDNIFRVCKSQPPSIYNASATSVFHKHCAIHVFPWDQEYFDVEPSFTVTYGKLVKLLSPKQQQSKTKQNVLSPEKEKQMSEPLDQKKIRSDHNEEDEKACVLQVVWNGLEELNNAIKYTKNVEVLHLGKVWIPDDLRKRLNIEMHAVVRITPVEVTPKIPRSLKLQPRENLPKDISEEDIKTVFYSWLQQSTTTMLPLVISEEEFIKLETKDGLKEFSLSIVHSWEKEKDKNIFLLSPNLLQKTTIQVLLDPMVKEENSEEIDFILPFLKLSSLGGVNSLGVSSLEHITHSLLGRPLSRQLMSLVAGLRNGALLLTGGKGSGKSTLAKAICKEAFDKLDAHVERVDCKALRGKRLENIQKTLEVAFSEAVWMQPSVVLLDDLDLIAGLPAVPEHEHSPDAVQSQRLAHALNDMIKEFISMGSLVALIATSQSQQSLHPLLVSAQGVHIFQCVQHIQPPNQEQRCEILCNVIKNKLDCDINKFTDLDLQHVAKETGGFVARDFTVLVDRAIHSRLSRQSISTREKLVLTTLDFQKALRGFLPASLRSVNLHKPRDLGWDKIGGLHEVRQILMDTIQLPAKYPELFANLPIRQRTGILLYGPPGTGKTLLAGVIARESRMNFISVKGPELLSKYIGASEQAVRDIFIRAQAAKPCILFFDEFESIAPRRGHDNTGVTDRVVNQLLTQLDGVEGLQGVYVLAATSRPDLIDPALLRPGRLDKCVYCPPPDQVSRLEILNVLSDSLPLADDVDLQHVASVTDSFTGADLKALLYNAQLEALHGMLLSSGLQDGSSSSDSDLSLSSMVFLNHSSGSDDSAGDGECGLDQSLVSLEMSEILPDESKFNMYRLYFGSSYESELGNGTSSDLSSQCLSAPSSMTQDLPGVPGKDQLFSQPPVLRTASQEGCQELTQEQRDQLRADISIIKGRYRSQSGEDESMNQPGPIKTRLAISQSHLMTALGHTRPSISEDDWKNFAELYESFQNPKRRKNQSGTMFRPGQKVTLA
UniProt Q99497, whole entry, looked up: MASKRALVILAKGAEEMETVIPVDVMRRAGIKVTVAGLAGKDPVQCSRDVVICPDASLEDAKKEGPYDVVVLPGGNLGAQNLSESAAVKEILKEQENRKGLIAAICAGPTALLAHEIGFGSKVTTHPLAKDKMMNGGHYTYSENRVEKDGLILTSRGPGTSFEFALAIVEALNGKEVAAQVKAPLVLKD
UniProt Q9NWT1: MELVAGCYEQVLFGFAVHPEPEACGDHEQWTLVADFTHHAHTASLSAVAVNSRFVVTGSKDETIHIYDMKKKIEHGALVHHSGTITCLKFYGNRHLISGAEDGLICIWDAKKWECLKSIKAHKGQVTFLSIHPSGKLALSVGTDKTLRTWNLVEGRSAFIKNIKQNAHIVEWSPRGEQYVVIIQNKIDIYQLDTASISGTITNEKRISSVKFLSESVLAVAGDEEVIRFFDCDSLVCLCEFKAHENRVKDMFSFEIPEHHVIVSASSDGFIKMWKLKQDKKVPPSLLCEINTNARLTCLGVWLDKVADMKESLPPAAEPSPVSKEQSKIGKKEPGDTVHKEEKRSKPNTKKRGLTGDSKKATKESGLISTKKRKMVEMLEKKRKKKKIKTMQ
UniProt O00764: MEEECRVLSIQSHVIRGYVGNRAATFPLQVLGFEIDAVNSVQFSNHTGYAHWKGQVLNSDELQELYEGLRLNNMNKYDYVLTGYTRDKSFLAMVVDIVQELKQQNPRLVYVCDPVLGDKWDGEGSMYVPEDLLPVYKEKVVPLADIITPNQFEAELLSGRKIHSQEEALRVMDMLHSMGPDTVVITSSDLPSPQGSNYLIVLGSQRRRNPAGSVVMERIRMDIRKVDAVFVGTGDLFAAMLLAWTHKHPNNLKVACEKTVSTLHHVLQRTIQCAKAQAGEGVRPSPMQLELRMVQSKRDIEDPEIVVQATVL
UniProt P22061: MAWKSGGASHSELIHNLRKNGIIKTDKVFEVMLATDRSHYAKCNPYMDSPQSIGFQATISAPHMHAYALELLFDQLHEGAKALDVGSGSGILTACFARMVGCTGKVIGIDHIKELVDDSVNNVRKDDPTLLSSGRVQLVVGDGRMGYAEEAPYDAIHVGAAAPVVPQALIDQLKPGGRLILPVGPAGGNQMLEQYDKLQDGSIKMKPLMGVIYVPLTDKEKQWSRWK
UniProt Q9BUL8: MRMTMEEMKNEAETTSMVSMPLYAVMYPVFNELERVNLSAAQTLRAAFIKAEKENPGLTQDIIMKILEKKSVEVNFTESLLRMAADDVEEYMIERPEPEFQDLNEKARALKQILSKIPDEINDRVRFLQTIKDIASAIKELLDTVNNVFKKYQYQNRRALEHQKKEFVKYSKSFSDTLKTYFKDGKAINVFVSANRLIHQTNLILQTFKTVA
UniProt P51003: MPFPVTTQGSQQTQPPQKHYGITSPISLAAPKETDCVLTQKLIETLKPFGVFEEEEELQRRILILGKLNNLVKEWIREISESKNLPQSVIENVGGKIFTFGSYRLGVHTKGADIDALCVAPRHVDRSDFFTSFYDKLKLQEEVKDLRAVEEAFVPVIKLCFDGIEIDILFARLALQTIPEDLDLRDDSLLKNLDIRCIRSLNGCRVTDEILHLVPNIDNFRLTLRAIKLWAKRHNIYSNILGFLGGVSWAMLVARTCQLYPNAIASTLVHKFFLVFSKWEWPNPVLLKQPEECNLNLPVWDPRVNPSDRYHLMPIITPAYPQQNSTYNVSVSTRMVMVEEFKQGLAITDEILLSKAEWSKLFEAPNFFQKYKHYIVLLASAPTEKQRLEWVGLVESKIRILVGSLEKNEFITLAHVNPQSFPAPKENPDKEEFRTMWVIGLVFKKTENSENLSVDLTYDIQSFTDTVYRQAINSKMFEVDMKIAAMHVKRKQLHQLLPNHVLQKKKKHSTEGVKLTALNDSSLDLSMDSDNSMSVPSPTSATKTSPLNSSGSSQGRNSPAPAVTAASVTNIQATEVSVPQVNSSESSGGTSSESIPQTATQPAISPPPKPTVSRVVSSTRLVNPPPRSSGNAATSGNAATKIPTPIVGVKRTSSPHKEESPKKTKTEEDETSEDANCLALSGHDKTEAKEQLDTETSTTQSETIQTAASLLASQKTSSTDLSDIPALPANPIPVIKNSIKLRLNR
UniProt Q9HBI1: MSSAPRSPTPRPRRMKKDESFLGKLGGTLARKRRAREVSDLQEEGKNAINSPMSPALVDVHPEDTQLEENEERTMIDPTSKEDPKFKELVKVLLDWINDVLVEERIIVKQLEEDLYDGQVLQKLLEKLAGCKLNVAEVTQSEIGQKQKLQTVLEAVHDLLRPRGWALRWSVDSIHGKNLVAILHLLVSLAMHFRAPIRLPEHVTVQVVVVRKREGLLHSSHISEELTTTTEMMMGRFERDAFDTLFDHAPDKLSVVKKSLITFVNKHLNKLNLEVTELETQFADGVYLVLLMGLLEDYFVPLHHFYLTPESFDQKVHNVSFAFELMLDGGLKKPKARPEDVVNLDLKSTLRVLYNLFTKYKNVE
UniProt P43034: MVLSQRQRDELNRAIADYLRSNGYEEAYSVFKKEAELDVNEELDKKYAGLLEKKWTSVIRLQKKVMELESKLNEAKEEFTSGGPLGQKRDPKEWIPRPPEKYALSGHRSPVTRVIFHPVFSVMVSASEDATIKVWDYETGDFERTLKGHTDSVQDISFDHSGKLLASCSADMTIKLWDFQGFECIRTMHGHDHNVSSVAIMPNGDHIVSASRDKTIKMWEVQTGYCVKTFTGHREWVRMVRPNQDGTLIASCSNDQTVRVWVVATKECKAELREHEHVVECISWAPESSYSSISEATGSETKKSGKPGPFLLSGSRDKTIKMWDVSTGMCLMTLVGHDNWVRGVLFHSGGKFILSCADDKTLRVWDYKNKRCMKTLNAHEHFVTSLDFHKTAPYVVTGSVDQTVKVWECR

Some of the results follow.

Compound in this experiment: Cc1ccc(C(=O)N(CCCN)[C@@H](c2nc3cc(Cl)ccc3c(=O)n2Cc2ccccc2)C(C)C)cc1 [ispinesib]
Briefly: log2 fold change, soluble protein after heating vs DMSO (PISA); higher = thermal stabilisation; K562 cells, 10 uM, 30 min; active = over 0.2 and 3.5 SD of the protein, either way, in both replicates (recomputed). The essentials:
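Soluble protein was defined as the supernatant after 21,000xg for 90 min. It came from K562 cells at 2×10^6 cells/mL given 10 μM compound for 30 min, heated in aliquots for 3 min across 48°C-58°C, pooled, and extracted in PBS with 0.5% NP-40 at 4°C, and was quantified by TMTpro 16plex LC-MS/MS with equalised channel sums. Thermal stability against control samples, from duplicates, is reported as log2 fold change.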
With PEX12 (UniProt O00623), the log2 fold change was inactive: -0.159.

On to PDHX (UniProt O00330), for which the log2 fold change is inactive: -0.148.

Regarding PANK4 (UniProt Q9NVE7), the log2 fold change is inactive: 0.151.

On to PDSS1 (UniProt Q5T2R2), for which the log2 fold change is inactive: 0.024.

For the target PDLIM1 (UniProt O00151), the log2 fold change was inactive: 0.039.

For the target PDLIM4 (UniProt P50479), the log2 fold change was inactive: 0.068.

PAK2 (UniProt Q13177): the log2 fold change is inactive: 0.075.

For PACSIN2 (UniProt Q9UNF0), the log2 fold change was inactive: -0.199.

With PDXDC1 (UniProt Q6P996), the log2 fold change was inactive: -0.261.

On to PASK (UniProt Q96RG2), for which the log2 fold change was inactive: -0.001.

In the case of PARD6B (UniProt Q9BYG5), the log2 fold change is inactive: -0.026.

Take PEBP1 (UniProt P30086): the log2 fold change was inactive: 0.036.

As for PCYOX1 (UniProt Q9UHG3), the log2 fold change is inactive: 0.114.

Turning to PDXP (UniProt Q96GD0), the log2 fold change is inactive: 0.013.

As to PER3 isoform 2 (UniProt P56645), the log2 fold change is inactive: 0.024.

With PEX1 (UniProt O43933), the log2 fold change is inactive: 0.056.

Consider PARK7 (UniProt Q99497), for which the log2 fold change was inactive: 0.133.

On to PAK1IP1 (UniProt Q9NWT1), for which the log2 fold change was inactive: -0.079.

Regarding PES1 (UniProt O00541), the log2 fold change was inactive: -0.162.

Consider PDRG1 (UniProt Q9NUG6), for which the log2 fold change was inactive: 0.151.

With PDXK (UniProt O00764), the log2 fold change is inactive: 0.061.

Regarding PABPC4 isoform 3 (UniProt Q13310), the log2 fold change was inactive: -0.095.

Turning to PCMT1 isoform 2 (UniProt P22061), the log2 fold change is inactive: 0.095.

As for PEPD (UniProt P12955), the log2 fold change is inactive: -0.019.

As for PDCD10 (UniProt Q9BUL8), the log2 fold change was inactive: -0.041.

As for PAPOLA (UniProt P51003), the log2 fold change was inactive: 0.019.

Turning to PARVB (UniProt Q9HBI1), the log2 fold change is inactive: -0.083.

Regarding PANX1 (UniProt Q96RD7), the log2 fold change is inactive: 0.053.

Regarding PAFAH1B1 (UniProt P43034), the log2 fold change is inactive: 0.029.

Turning to PDIA3 (UniProt P30101), the log2 fold change is inactive: 0.

On to PDHB (UniProt P11177), for which the log2 fold change was inactive: -0.174.

With PAIP1 (UniProt Q9H074), the log2 fold change was inactive: -0.023.

As for PDCL (UniProt Q13371), the log2 fold change was inactive: -0.01.
